Assays:
[1] = Uncaging of compound 1 with radiation, with or without mouse EL4 cells; details: 20 μM in PBS, 5% FBS, 0-40Gy
Experimental: A 20 μM solution of compound 1 in phosphate-buffered saline (PBS), 5% fetal bovine serum (FBS) was exposed to increasing radiation doses (0-40Gy) in the absence (black bars) or in the presence (gray bars) of 300,000 mouse EL4 cells in solution (FIG. 11B). The production of fluorescence was detected with a 96-well plate reader (Excitation: 485/20, Emission: 528/20). The increase in fluorescence is detected as [(fluorescence)sample-(fluorescence)control]/(fluorescence)control. The control sample is defined as a 20 μM compound 1 in PBS, 5% FBS without exposure to radiation. Each condition was tested in triplicates.
To simulate the catalyzing effect provided by tumor cells in the generation of ROS/RNS when exposed to radiation, the compound 1 was studied in the presence or absence of auxiliary cells.

[2] = Uncaging of compound 3 with hydrogen peroxide (fluorescence-detected HPLC); details: 20 μM in 50 mM HEPES pH 7; between 1000 and 50 μM H2O2; 15 minutes reaction
Experimental: To minimalize the possibility of side reactions of the maleimide moiety in the presence of H2O2, compound 1 was allowed to react with cysteine to obtain Cys-adducts that may be more relevant to the antibody adducts of interests (See, e.g., Scheme 2). Cys-adducts were prepared for both compounds 1 and 2 (hereafter compound 3 and compound 4, respectively).
A 20 μM solution of compound 3 in 50 mM HEPES pH 7 buffer was titrated with H2O2. Production of compound 4 was monitored by fluorescence-detected HPLC after 15 minutes reaction.

| Structure (SMILES) | conversion to compound 2 by ROS/RNS generated by radiation [1] | amount of compound 2 generated versus radiation dose and presence of cells ([1]; with or without 300,000 mouse EL4 cells) | production of compound 4 on H2O2 titration [2] |
| --- | --- | --- | --- |
| CC1(C)[C@@H]2CC3OB(c4ccc5c(c4)Oc4cc(B6OC7C[C@@H]8C[C@@H](C8(C)C)[C@]7(C)O6)ccc4C54OC(=O)c5cc(NC(=O)CCOCCOCCNC(=O)CCN6C(=O)C=CC6=O)ccc54)O[C@@]3(C)[C@H]1C2 (stereo partly drawn) [Compound 1, 3-(2,5-dioxo-2,5-dihydro-1H-pyrrol-1-yl)-N-(2-(2-(3-oxo-3-((3-oxo-3′,6′-bis((3aS,4S,6S)-3a,5,5-trimethylhexahydro-4,6-methanobenzo[d][1,3,2]dioxaborol-2-yl)-3H-spiro[isobenzofuran-1,9′-xanthen]-5-yl)amino)propoxy)ethoxy)ethyl)propanamide] | rapidly converted | proportional to the dose used and it was enhanced in the presence of cells in solution |  |
| CC1(C)[C@@H]2C[C@H]1C1OB(c3ccc4c(c3)Oc3cc(B5OC6C[C@@H]7C[C@@H](C7(C)C)[C@]6(C)O5)ccc3C43OC(=O)c4cc(NC(=O)CCOCCOCCNC(=O)CCN5C(=O)CC(SC[C@H](N)C(=O)O)C5=O)ccc43)O[C@@]1(C)C2 (stereo partly drawn) [Compound 3, S-(2,5-dioxo-1-(3-oxo-3-((2-(2-(3-oxo-3-((3-oxo-3′-((3aS,4S,6S)-3a,5,5-trimethylhexahydro-4,6-methanobenzo[d][1,3,2]dioxaborol-2-yl)-6′-((4R,6R,7aS)-5,5,7a-trimethylhexahydro-4,6-methanobenzo[d][1,3,2]dioxaborol-2-yl)-3H-spiro[isobenzofuran-1,9′-xanthen]-5-yl)amino)propoxy)ethoxy)ethyl)amino)propyl)pyrrolidin-3-yl)cysteine] |  |  | linear response |

From patent US20240316171A1, “COMPOSITIONS AND METHODS FOR TARGETED IMMUNOTHERAPY” (Dana-Farber Cancer Institute, Inc., priority 2018, published 2024)
